Patent publication US20230194519A1 (CCOA THERAPEUTICS, published 2023)
These are yes or no findings as the source states them, for the method shown. Some results given as binding are weak or reduced against the parent protein; the word gives no strength.

The chains behind the UniProt entries cited, without tags or fusion partners. Where a name states a change or a piece, a line headed by the entry shows the natural chain unless it says otherwise.
UniProt P08514: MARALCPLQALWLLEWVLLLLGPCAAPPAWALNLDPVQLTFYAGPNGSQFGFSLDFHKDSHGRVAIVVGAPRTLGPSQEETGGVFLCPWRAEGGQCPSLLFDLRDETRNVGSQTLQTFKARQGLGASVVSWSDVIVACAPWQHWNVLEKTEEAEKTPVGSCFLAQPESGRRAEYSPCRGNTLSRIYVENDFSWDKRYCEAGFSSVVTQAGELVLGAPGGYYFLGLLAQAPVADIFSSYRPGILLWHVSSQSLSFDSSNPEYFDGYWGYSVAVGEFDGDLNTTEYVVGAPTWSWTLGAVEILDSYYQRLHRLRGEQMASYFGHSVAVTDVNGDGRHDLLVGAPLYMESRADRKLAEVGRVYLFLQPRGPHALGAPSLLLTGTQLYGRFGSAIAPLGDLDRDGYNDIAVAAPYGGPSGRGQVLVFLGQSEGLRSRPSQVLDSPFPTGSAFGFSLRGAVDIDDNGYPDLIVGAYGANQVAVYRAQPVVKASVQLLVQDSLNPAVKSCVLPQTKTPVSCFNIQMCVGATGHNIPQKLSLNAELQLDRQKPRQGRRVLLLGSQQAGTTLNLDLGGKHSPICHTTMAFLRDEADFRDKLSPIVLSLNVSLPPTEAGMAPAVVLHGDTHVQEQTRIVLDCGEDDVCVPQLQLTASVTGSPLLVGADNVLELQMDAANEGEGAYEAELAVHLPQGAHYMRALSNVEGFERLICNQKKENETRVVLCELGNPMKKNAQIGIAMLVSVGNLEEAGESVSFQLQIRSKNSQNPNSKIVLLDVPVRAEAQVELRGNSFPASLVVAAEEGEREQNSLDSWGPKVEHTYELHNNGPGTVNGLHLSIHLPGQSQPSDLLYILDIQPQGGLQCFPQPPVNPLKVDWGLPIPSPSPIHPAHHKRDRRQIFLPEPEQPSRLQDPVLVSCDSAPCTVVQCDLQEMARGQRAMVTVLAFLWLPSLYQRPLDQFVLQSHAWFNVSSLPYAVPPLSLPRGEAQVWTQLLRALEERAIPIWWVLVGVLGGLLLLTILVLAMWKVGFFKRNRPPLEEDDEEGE

How the values were obtained:
[1] = target: Activated αIIbβ3 (recombinant human ectodomain αIIbβ3 on DETA beads after incubation in activation buffer with CaCl2, MnCl2 and MgCl2) (human) (UniProt P08514); test: flow cytometry of activated αIIbβ3 beads with Alexa488-fibrinogen
[2] = target: Activated αIIbβ3 (recombinant human ectodomain αIIbβ3 on DETA beads after incubation in activation buffer with CaCl2, MnCl2 and MgCl2) (human) (UniProt P08514); test: flow cytometry of activated adsorbed versus covalently bound αIIbβ3 beads with fibrinogen

B1: fibrinogen (ligand)
chain 1: ADSGEGDFLAEGGGVRGPRVVERHQSACKDSDWPFCSDEDWNYKCPSGCRMKGLIDEVNQDFTNRINKLKNSLFEYQKNNKDSHSLTTNIMEILRGDFSSANNRDNTYNRVSEDLRSRIEVLKRKVIEKVQHIQLLQKNVRAQLVDMKRLEVDIDIKIRSCRGSCSRALAREVDLKDYEDQQKQLEQVIAKDLLPSRDRQHLPLIKMKPVPDLVPGNFKSQLQKVPPEWKALTDMPQMRMELERPGGNEITRGGSTSYGTGSETESPRNPSSAGSWNSGSSGPGSTGNRNPGSSGTGGTATWKPGSSGPGSTGSWNSGSSGTGSTGNQNPGSPRPGSTGTWNPGSSERGSAGHWTSESSVSGSTGQWHSESGSFRPDSPGSGNARPNNPDWGTFEEVSGNVSPGTRREYHTEKLVTSKGDKELRTGKEKVTSGSTTTTRRSCSKTVTKTVIGPDGHKEVTKEVVTSEDGSDCPEAMDLGTLSGIGTLDGFRHRHPDEAAFFDTASTGKTFPGFFSPMLGEFVSETESRGSESGIFTNTKESSSHHPGIAEFPSRGKSSSYSKQFTSSTSYNRGDSTFESKSYKMADEAGSEADHEGTHSTKRGHAKSRPV
chain 2: QGVNDNEEGFFSARGHRPLDKKREEAPSLRPAPPPISGGGYRARPAKAAATQKKVERKAPDAGGCLHADPDLGVLCPTGCQLQEALLQQERPIRNSVDELNNNVEAVSQTSSSSFQYMYLLKDLWQKRQKQVKDNENVVNEYSSELEKHQLYIDETVNSNIPTNLRVLRSILENLRSKIQKLESDVSAQMEYCRTPCTVSCNIPVVSGKECEEIIRKGGETSEMYLIQPDSSVKPYRVYCDMNTENGGWTVIQNRQDGSVDFGRKWDPYKQGFGNVATNTDGKNYCGLPGEYWLGNDKISQLTRMGPTELLIEMEDWKGDKVKAHYGGFTVQNEANKYQISVNKYRGTAGNALMDGASQLMGENRTMTIHNGMFFSTYDRDNDGWLTSDPRKQCSKEDGGGWWYNRCHAANPNGRYYWGGQYTWDMAKHGTDDGVVWMNWKGSWYSMRKMSMKIRPFFPQQ
chain 3: YVATRDNCCILDERFGSYCPTTCGIADFLSTYQTKVDKDLQSLEDILHQVENKTSEVKQLIKAIQLTYNPDESSKPNMIDAATLKSRKMLEEIMKYEASILTHDSSIRYLQEIYNSNNQKIVNLKEKVAQLEAQCQEPCKDTVQIHDITGKDCQDIANKGAKQSGLYFIKPLKANQQFLVYCEIDGSGNGWTVFQKRLDGSVDFKKNWIQYKEGFGHLSPTGTTEFWLGNEKIHLISTQSAIPYALRVELEDWNGRTSTADYAMFKVGPEADKYRLTYAYFAGGDAGDAFDGFDFGDDPSDKFFTSHNGMQFSTWDNDNDKFEGNCAEQDGSGWWMNKCHAGHLNGVYYQGGTYSKASTPNGYDNGIIWATWKTRWYSMKKTTMKIIPFNRLTIGEGQQHHLGGAKQAGDV
modifications: Alexa488 label in the Table 2 assay
notes: Native ligand of αIIbβ3; also called Alexa488 labelled fibrinogen; Alexa 488 - Fibrinogen
binding [1]: binds | binding [2]: binds
